Results published in PubChem BioAssay AID328 (DTP/NCI, 2004).
The list is a part of this screen's results and no random one: it gathers tests that were run many times, whatever their T/C, doses with no T/C, and many T/C values between a quarter and a half above the control. Further doses and runs are listed elsewhere. T/C is the treated group as % of the vehicle group. Some doses have a count of surviving animals in place of a T/C: the source holds a T/C of zero for them, seemingly a mark for toxic or unscored doses. Some survivor counts are full or nearly so, which does not show that the dose was tolerated: survival well below the control is almost never listed, so the zero probably covers shortened survival too. Survivors were counted at the toxicity check, usually on the fifth day, unless a day is given; later deaths do not show. Schedules are NCI's codes, read here as Q, the interval in days (D) or hours (H), X, the number of doses. Where survival is the endpoint, this PubChem deposit counts one and a half times the control or more as active, and values a quarter to a half above the control carry no call in these data; other NCI protocols may use other cut-offs. Some entries were tested several times; the values are given in rising order. Some T/C values carry the count of animals alive at the toxicity check (mostly the fifth day); without a count, all were alive then.

System: BDF1 mice, P388 leukemia ip, median survival T/C
Test: NCI In Vivo Anticancer Drug Screen. Data for tumor model P388 Leukemia (intraperitoneal) in B6D2F1 (BDF1) mice
Conditions: T/C endpoint: median survival time, higher T/C = longer survival
Summary of the method: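 Each value expresses how treatment altered survival: treated-mouse outcome over vehicle-mouse outcome, both groups bearing the transplanted tumour.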

[1] = dose: 100.0 mg/kg/injection, schedule: Q01DX009 (ip), vehicle: Klucel (hydroxypropylcellulose) (HPC)
[2] = dose: 200.0 mg/kg/injection, schedule: Q01DX001 (ip), vehicle: saline sonified
[3] = dose: 25.0 mg/kg/injection, schedule: Q04DX003 (ip), vehicle: saline
[4] = dose: 50.0 mg/kg/injection, schedule: Q01DX009 (ip), vehicle: saline with Tween-80
[5] = dose: 100.0 mg/kg/injection, schedule: Q01DX009 (ip), vehicle: saline with Tween-80
[6] = dose: 200.0 mg/kg/injection, schedule: Q01DX009 (ip), vehicle: saline with Tween-80

`CN(C)c1ccc(/C=N/NC(N)=S)nc1` was tested, and the T/C (dose: 19.0 mg/kg/injection, schedule: Q04DX003 (ip), vehicle: saline with Tween-80) was 136 % of control, the T/C (dose: 29.0 mg/kg/injection, schedule: Q04DX003 (ip), vehicle: saline with Tween-80) was 136 % of control and the T/C (dose: 30.0 mg/kg/injection, schedule: Q04DX003 (ip), vehicle: saline with Tween-80) was 125 % of control. For the same molecule, the T/C (dose: 44.0 mg/kg/injection, schedule: Q04DX003 (ip), vehicle: saline with Tween-80) was 141 % of control.

For `O=C1C=C(Cl)C(=O)C2=C1CCCC2`, the survivor count (dose: 3.13 mg/kg/injection, schedule: Q04DX002 (ip), vehicle: saline with Tween-80) was 2 of 6 and the survivor count (dose: 6.25 mg/kg/injection, schedule: Q04DX002 (ip), vehicle: saline with Tween-80) was 1 of 6.

For `CC(C)=CCC/C(C)=C/CNCCc1c[nH]c2ccccc12`, the T/C (dose: 12.5 mg/kg/injection, schedule: Q01DX009 (ip), vehicle: Klucel (hydroxypropylcellulose) (HPC)) was 130 % of control, the T/C (dose: 25.0 mg/kg/injection, schedule: Q01DX009 (ip), vehicle: Klucel (hydroxypropylcellulose) (HPC)) was 127 % of control and the survivor count [1] was 1 of 6.

`COc1cc2c(c(OC)c1OC)-c1ccc(OC)c(=O)cc1[C@@H](NC(=O)c1ccccc1)CC2` was tested, and the T/C (dose: 0.25 mg/kg/injection, schedule: Q01DX009 (ip), vehicle: saline sonified) was 137 and 140 % of control, the survivor count (dose: 4.0 mg/kg/injection, schedule: Q01DX009 (ip), vehicle: saline sonified) was 3 of 6 and the survivor count (dose: 8.0 mg/kg/injection, schedule: Q01DX009 (ip), vehicle: saline sonified) was 4 of 6. For the same molecule, the survivor count (dose: 9.0 mg/kg/injection, schedule: Q01DX009 (ip), vehicle: saline sonified) was 6 of 6 and the survivor count (dose: 12.0 mg/kg/injection, schedule: Q01DX009 (ip), vehicle: saline sonified) was 6 of 6.

`N#CCC(=O)Cc1ccccc1[N+](=O)[O-]` was tested, and the survivor count (dose: 100.0 mg/kg/injection, schedule: Q01DX001 (ip), vehicle: saline sonified) was 6 of 6 and the survivor count [2] was 6 of 6.

For `O=C(Nc1ccc(NC(=O)c2ccc(C3=NCCCN3)cc2)cc1)Nc1ccc(C2=NCCCN2)cc1`, the survivor count (dose: 20.0 mg/kg/injection, schedule: Q04DX003 (ip), vehicle: saline with Tween-80) was 3 of 6.

With `CN1CCN(C(=O)N2c3ccccc3Sc3ccccc32)CC1` the survivor count [3] was 6 of 6, the survivor count (dose: 50.0 mg/kg/injection, schedule: Q04DX003 (ip), vehicle: saline) was 6 of 6 and the survivor count (dose: 100.0 mg/kg/injection, schedule: Q04DX003 (ip), vehicle: saline) was 6 of 6.

With `CC(c1ccccc1)[n+]1ccccc1C1OCCO1` (configuration not stated) the survivor count [3] was 4 of 6.

With `O=Ic1ccccc1` the survivor count (dose: 50.0 mg/kg/injection, schedule: Q01DX009 (ip), vehicle: Klucel (hydroxypropylcellulose) (HPC)) was 5 of 6, the survivor count [1] was 2 of 6 and the survivor count (dose: 200.0 mg/kg/injection, schedule: Q04DX003 (ip), vehicle: Klucel (hydroxypropylcellulose) (HPC)) was 0 of 6.

For `CCCCC(I)C(C)(C)[n+]1ccccc1` (configuration not stated), the survivor count (dose: 12.5 mg/kg/injection, schedule: Q04DX003 (ip), vehicle: saline with Tween-80) was 6 of 6 and the survivor count [4] was 5 of 6.

In the case of `CCN(CCNc1ccc(CO)c2sc3ccccc3c(=O)c12)CC(C)(C)O`, the T/C (dose: 400.0 mg/kg/injection, schedule: Q04DX003 (ip), vehicle: Klucel (hydroxypropylcellulose) (HPC)) is reported as 127 % of control.

`Oc1cc(N2CC2)c(O)cc1N1CC1` was tested, and the T/C (dose: 0.05 mg/kg/injection, schedule: Q01DX009 (ip), vehicle: saline) was 133 % of control, the T/C (dose: 0.2 mg/kg/injection, schedule: Q01DX009 (ip), vehicle: saline) was 145 % of control and the T/C (dose: 0.31 mg/kg/injection, schedule: Q04DX003 (ip), vehicle: saline) was 145 % of control. The survivor count (dose: 5.0 mg/kg/injection, schedule: Q04DX003 (ip), vehicle: saline) was 6 of 6, the survivor count (dose: 10.0 mg/kg/injection, schedule: Q04DX003 (ip), vehicle: saline) was 5 of 6 and the survivor count (dose: 1400.0 micrograms/kg/injection, schedule: Q01DX009 (ip), vehicle: saline) was 5 of 6. The survivor count (dose: 2200.0 micrograms/kg/injection, schedule: Q01DX009 (ip), vehicle: saline) was 6 of 6 and the survivor count (dose: 3300.0 micrograms/kg/injection, schedule: Q01DX009 (ip), vehicle: saline) was 6 of 6.

In the case of `O=C1C=CC(=O)N1c1ccc(Br)cc1Cl`, the T/C (dose: 4.0 mg/kg/injection, schedule: Q04DX003 (ip), vehicle: saline) is reported as 133 % of control.

For `CCOC(=O)C1CC[N+](=c2cc(-c3ccc(Cl)cc3)ss2)CC1` (configuration not stated), the T/C (dose: 200.0 mg/kg/injection, schedule: Q01DX009 (ip), vehicle: saline) was 126 % of control [5 of 6 alive] and the survivor count (dose: 400.0 mg/kg/injection, schedule: Q01DX009 (ip), vehicle: saline) was 2 of 6.

With `CCOC(=O)c1c(NC(=O)CCl)ssc1=S` the survivor count [5] was 4 of 6, the survivor count (dose: 100.0 mg/kg/injection, schedule: Q04DX003 (ip), vehicle: saline with Tween-80) was 6 of 6 and the survivor count [6] was 1 of 6. The survivor count (dose: 400.0 mg/kg/injection, schedule: Q01DX009 (ip), vehicle: saline with Tween-80) was 0 of 6.

`Nc1nc(N)c(Nc2ccc(Cl)cc2)c(Cl)n1` was tested, and the survivor count (dose: 400.0 mg/kg/injection, schedule: Q01DX001 (ip), vehicle: saline with Tween-80) was 0 of 6.

With `CC(C)S.[Cu+2]` the survivor count [4] was 1 of 6, the survivor count [5] was 0 of 6 and the survivor count [6] was 0 of 6.

In the case of `CCNC(C)(C)C(SSS)c1ccco1` (configuration not stated), the survivor count (dose: 200.0 mg/kg/injection, schedule: Q01DX009 (ip), vehicle: gum acacia) is reported as 6 of 6, the T/C (dose: 200.0 mg/kg/injection, schedule: Q04DX003 (ip), vehicle: gum acacia) is reported as 129 % of control and the survivor count (dose: 300.0 mg/kg/injection, schedule: Q01DX009 (ip), vehicle: gum acacia) is reported as 3 of 6.

With `Cc1cc(=O)[nH]c2c1CCCCC2` the survivor count [2] was 5 of 6.

For `Cc1cccc(C)c1NC(=S)N(C)C`, the survivor count (dose: 200.0 mg/kg/injection, schedule: Q04DX003 (ip), vehicle: saline) was 5 of 6 and the survivor count (dose: 400.0 mg/kg/injection, schedule: Q04DX003 (ip), vehicle: saline) was 0 of 6.
